# Data reported in patent publication US20160046678A1 (ZYNGENIA, published 2016).
# The chains behind the UniProt entries cited, without tags or fusion partners. Residues count along the entry.
# UniProt P05231, residues 30-212: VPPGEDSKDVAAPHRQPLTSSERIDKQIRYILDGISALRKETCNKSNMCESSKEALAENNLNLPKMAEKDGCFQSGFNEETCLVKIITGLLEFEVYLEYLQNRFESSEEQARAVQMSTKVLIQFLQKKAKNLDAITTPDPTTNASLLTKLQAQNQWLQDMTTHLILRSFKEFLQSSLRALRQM
# These are yes or no findings as the source states them, for the method shown. Some results given as binding are weak or reduced against the parent protein; the word gives no strength.
# Target: IL6 (UniProt P05231)
# Experiment: MRD identification, Example 48
row,Binder,binding
1,WYHWMKEHMWGQAG [ILB88],binds
2,HHHKMWPQNKSADSHAYTMM [ILB89],binds
3,WPSWTYWYHF [ILB91],binds
4,PWTYNWPWFM [ILB92],binds
5,IWHVFYMVQAGQAG [ILB94],binds
6,RYMHMVWQHI [ILB96],binds
7,PMTMWWFFWKGQAG [ILB98],binds
8,HSFVYMHWFL [ILB99],binds
9,WPMITWLGWYGQAG [ILB100],binds
10,YMFHWPLFWLGQAG [ILB101],binds
11,MQGWLWAKWW [ILB102],binds
12,IYAWWKWHWFGQAG [ILB104],binds
13,TMQPHHIYGYGQAG [ILB105],binds
14,SLFMPQHNVHGQAG [ILB106],binds
15,YWPSLEWDWS [ILB107],binds
16,GCWWVATECWGQAG [ILB114],binds
17,GCTWLIDICTGQAG [ILB122],binds
18,HQLQPYIQDL [ILB128],binds
19,WCLAGHVYCQGQAG [ILB130],binds
20,GVLKSGFRSLRCMARP [ILB135],binds
21,PCPGFPPPMLCMGQAG [ILB139],binds
22,PCMRDWWMCGGQAG [ILB140],binds
23,KCTHLPFQRNCSGQAG [ILB142],binds
24,FCHHWRPVCLGQAG [ILB143],binds
25,ACMLKTHRCKGPGR [ILB146],binds
26,RCSIWKVYAMCM [ILB148],binds

row,Binder,binding
1,ECLWTSLECEGQAG [ILB151],binds
2,VCIPMATMCIGQAG [ILB158],binds
3,SVSWCFWDPLVMQCKDHT [ILB226],binds
4,VHFNCAWDPLMMRCNYDL [ILB228],binds
5,RMSTCLWDPLLMNCKSLW [ILB229],binds
6,TSEPCFWDPLLMTCDYGS [ILB230],binds
7,QNVNCLWDPLRMNCVEYK [ILB231],binds
8,SYIGYTYCPWDPLTMRCV [ILB232],binds
9,LRHFVQYCPWDPLLMACI [ILB233],binds
10,FTIGGPICGWDPLLMRCV [ILB234],binds
11,LLCSENWCRWDPLMMSCR [ILB236],binds
12,FSQMCGWDPLLMMCRSVN [ILB237],binds
13,VGSDCMWDPLMMNCRYSY [ILB238],binds
14,LSLLCHWDPLIMRCSYDS [ILB239],binds
15,YIPPCHWDPLLMDCAQIQ [ILB240],binds
16,MMMECHWDPLLMRCQNPK [ILB241],binds
17,LPSSCYWDPLLMECSHRN [ILB242],binds
18,LVPPLFACFWDPLLMNCS [ILB243],binds
19,WSYFNRSCAWDPLLMKCA [ILB244],binds
20,SSFTVVSCMWDPLLMSCM [ILB245],binds
21,LLTKYRTCHWDPLLMLCR [ILB246],binds
22,MVFWDEFCSWDPLLMACR [ILB247],binds
23,NQLSSIMCHWDPLLMTCQ [ILB248],binds
24,TFTSCSWDPLLMDCTDFV [ILB249],binds
25,MVFYCYWDPLLMLCHDQT [ILB250],binds
